Assay: peptide synthesis
Conditions: for cyclisation yield: cyclisation step

Substance: (3S,6R,9S,12R,15S,18R,21S,24R)-3,9,15,21-tetraisobutyl-4,6,10,16,18,22-hexamethyl-12,24-bis(4-morpholinobenzyl)-1,7,13,19-tetraoxa-4,10,16,22-tetraazacyclotetracosan-2,5,8,11,14,17,20,23-octaone
- cyclisation yield (2 steps (TAGa cleavage + cyclisation), run 1): 46% for 2 steps
- cyclisation yield (2 steps (TAGa cleavage + cyclisation), run 2): 44% for 2 steps
- cyclisation yield (run 1): 51.3%
- cyclisation yield (run 2): 88%
- step yield (late stage modification step, run 1): 100%
- step yield (late stage modification step, run 2): 94%

Substance: (R)-1-(benzyloxy)-1-oxopropan-2-yl N-methyl-N-((6S,9R,12S,15R,18S,21R)-6,12,18-triiso-butyl-2,2,5,11,15,17-hexamethyl-9,21-bis(4-morpholinobenzyl)-4,7,10,13,16,19-hexaoxo-3,8,14,20-tetraoxa-5,11,17-triazadocosan-22-oyl)-L-leucinate
- step yield (coupling step): 83.4%

Substance: N-MeLeu-D-PhLac-N-MeLeu-D-Lac-N-MeLeu-D-PhLac-N-MeLeu-D-LacO-TAGa
- step yield (late stage modification step): 98%

Substance: (R)-1-(benzyloxy)-1-oxopropan-2-yl-N-methyl-N—((R)-2-((methyl-L-leucyl)oxy)-3-(4-morphol-inophenyl)propanoyl)-L-leucinate
- step yield (late stage modification step): 89.9%

Substance: (R)-1-(benzyloxy)-1-oxopropan-2-yl N—((R)-2-((N-(tert-butoxycarbonyl)-N-methyl-L-leucyl)oxy)-3-(4-morpholinophenyl)propanoyl)-N-methyl-L-leucinate
- step yield (coupling step): 97.4%

Substance: (6S,9R,12S,15R)-6,12-diisobutyl-2,2,5,11,15-pentamethyl-9-(4-morpholinobenzyl)-4,7,10,13-tetraoxo-3,8,14-trioxa-5,11-diazahexadecan-16-oic acid
- step yield (late stage modification step): 98.0%

Substance: (R)-1-(benzyloxy)-1-oxopropan-2-yl N-((2R,5S,8R,11S,14R,17S)-5,11-diisobutyl-6,8,12,19-tetramethyl-17-(methylamino)-2,14-bis(4-morpholinobenzyl)-4,7,10,13,16-pentaoxo-3,9,15-trioxa-6,12-diazaicosanoyl)-N-methyl-L-leucinate
- step yield (late stage modification step): 90.1%

Substance: N-MeLeu-D-Lac-N-MeLeu-D-PhLac-N-MeLeu-D-Lac-N-MeLeu-D-PhLac-O-TAGa
- step yield (late stage modification step): 100%
